The supplement of paper PMC12819154, “High-throughput peptide-centric local stability assay extends protein–ligand identification to membrane proteins, tissues and bacteria” (Nature Structural & Molecular Biology, 2025)
The other results are listed elsewhere or left out. Most values lie at the level of the controls, where differences are scatter.

By UniProt entry, the sequences of proteins in these tests, tags left out. Where a name states a change or a piece, a line headed by the entry shows the natural chain unless it says otherwise.
UniProt Q71F56: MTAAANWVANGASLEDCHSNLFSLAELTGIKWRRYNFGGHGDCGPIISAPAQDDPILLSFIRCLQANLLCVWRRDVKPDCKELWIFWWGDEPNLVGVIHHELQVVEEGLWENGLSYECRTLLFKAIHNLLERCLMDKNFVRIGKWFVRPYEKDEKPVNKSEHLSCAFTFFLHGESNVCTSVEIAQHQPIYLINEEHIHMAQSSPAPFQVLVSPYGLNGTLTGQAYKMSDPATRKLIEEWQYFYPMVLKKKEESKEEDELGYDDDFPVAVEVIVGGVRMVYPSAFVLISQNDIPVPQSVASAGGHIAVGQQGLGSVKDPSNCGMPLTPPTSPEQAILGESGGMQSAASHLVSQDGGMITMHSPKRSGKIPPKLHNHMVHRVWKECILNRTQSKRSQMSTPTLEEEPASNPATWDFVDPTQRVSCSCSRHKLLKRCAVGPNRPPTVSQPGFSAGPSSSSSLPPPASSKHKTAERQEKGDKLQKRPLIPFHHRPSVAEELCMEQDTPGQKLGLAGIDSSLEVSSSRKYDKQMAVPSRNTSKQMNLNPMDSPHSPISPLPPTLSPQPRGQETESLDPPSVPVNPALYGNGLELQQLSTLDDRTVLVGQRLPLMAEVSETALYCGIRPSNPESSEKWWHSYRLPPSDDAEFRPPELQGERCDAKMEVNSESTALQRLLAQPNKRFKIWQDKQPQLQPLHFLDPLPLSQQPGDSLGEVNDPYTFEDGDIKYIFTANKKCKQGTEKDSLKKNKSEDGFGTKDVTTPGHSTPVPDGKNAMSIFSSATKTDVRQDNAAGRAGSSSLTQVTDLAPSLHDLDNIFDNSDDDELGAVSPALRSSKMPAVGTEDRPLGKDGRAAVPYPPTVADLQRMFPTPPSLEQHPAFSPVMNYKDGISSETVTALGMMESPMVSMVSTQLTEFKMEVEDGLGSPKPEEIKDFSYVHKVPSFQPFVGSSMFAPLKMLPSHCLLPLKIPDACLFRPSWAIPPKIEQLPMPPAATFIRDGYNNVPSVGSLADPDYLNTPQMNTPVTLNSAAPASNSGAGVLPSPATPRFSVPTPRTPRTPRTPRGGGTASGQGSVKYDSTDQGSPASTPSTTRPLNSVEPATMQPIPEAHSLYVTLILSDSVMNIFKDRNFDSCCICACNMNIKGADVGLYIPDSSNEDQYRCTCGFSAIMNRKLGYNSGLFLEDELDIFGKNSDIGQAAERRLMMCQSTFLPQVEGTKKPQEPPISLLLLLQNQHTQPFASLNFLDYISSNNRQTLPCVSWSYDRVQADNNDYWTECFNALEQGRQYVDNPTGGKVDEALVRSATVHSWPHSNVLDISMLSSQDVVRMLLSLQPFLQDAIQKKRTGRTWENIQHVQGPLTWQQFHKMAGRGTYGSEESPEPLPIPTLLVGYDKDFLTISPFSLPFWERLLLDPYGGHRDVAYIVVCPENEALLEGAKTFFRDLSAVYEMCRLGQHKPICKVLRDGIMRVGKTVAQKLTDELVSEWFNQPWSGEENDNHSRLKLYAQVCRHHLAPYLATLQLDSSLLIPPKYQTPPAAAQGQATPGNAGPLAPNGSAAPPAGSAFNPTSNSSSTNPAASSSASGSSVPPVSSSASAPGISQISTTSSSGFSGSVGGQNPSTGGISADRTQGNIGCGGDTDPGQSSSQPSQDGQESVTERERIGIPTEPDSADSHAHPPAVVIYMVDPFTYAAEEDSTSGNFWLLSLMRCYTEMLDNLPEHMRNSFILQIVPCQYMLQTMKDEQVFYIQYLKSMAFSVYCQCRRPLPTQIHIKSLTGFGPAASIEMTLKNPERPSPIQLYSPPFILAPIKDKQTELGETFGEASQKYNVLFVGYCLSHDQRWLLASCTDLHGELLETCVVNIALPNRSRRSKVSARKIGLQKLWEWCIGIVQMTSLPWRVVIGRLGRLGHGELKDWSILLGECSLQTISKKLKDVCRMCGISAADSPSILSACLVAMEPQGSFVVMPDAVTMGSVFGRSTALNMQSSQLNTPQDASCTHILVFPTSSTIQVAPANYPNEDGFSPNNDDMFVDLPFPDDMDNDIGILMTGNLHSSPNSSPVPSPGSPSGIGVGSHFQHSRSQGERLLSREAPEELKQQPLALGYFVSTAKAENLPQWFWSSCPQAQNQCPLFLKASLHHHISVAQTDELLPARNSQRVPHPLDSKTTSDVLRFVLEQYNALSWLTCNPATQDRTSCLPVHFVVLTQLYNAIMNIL
UniProt Q6ZU64: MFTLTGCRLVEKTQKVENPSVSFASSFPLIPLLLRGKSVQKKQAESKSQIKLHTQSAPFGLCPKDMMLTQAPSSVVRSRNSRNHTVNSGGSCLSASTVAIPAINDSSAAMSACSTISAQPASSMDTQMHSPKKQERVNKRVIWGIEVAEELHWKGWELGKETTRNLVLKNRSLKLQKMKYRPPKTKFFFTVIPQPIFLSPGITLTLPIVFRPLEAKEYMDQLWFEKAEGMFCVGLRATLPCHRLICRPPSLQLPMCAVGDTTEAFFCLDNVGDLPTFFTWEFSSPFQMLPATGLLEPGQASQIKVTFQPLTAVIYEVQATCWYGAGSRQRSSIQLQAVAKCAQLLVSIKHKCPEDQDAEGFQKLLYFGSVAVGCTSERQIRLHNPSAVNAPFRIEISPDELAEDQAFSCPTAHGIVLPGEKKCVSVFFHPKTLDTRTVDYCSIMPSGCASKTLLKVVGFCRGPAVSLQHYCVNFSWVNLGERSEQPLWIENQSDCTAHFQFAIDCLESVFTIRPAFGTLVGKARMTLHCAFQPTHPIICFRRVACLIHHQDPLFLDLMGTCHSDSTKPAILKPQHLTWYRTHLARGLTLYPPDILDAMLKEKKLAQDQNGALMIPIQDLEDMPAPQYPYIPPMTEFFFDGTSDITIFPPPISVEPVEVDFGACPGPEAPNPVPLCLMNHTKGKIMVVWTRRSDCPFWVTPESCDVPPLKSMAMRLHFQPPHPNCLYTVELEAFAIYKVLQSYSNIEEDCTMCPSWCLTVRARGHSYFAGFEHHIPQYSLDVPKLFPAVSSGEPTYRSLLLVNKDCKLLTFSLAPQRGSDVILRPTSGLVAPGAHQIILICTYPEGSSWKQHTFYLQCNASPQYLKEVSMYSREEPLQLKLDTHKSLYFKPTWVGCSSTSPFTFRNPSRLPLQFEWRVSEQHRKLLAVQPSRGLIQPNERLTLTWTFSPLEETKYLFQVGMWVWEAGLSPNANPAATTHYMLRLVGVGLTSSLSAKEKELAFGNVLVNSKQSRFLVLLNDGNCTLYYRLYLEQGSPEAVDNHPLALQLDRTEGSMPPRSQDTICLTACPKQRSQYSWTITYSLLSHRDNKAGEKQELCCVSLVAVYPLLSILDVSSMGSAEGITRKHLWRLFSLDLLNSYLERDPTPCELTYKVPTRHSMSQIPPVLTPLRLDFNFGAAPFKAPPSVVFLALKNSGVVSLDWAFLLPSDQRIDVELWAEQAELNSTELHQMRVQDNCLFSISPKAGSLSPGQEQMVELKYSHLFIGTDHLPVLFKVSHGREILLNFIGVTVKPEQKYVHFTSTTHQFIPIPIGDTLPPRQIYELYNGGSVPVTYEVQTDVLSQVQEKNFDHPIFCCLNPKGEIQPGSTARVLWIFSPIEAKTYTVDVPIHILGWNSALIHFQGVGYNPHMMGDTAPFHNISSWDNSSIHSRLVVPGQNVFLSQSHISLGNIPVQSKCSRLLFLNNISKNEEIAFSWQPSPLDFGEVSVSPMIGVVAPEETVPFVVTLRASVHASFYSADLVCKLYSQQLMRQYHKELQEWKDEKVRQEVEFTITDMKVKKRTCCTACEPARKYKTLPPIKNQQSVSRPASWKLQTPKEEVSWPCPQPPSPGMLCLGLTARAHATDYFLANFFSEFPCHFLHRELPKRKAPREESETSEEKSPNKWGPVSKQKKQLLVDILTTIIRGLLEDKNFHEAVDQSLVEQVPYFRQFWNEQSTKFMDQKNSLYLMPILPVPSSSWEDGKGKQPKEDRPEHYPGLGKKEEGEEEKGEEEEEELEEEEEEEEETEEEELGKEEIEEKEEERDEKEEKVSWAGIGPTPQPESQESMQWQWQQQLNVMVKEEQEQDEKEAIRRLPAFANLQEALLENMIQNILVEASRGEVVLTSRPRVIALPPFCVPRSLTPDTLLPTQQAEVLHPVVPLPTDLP
UniProt Q7L9L4: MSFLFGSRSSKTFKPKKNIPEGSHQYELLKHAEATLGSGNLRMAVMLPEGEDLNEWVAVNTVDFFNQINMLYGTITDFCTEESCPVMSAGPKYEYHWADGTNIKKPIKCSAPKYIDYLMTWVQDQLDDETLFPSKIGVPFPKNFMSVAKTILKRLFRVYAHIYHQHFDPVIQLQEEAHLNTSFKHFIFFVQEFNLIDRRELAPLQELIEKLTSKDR
UniProt Q7Z6M4: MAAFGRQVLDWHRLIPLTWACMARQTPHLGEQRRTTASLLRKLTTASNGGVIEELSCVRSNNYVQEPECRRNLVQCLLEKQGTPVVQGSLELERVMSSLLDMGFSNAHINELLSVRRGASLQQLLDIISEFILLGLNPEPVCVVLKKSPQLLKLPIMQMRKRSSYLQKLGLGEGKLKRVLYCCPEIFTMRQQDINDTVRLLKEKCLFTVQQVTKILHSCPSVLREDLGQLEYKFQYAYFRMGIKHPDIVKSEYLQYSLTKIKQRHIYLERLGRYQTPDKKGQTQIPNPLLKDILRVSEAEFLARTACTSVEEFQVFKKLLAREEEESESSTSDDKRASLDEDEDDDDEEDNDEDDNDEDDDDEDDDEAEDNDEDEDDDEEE
UniProt Q6UWP2: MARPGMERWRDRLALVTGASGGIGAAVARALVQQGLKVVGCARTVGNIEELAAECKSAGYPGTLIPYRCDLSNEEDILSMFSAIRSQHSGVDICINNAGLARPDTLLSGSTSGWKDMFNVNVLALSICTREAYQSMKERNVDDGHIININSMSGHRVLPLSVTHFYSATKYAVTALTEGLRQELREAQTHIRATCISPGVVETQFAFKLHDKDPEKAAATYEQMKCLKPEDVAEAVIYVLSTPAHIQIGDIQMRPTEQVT
UniProt Q7Z5U6: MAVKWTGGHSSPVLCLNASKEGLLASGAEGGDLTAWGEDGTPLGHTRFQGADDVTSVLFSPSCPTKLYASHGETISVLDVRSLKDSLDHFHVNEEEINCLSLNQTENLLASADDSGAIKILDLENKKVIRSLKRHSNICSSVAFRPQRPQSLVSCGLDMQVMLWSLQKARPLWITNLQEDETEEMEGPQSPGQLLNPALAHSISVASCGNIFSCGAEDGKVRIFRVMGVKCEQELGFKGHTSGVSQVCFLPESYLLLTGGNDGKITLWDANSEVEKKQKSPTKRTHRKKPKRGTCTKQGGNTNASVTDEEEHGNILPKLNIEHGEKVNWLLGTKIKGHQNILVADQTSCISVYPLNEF
UniProt Q6ZN04: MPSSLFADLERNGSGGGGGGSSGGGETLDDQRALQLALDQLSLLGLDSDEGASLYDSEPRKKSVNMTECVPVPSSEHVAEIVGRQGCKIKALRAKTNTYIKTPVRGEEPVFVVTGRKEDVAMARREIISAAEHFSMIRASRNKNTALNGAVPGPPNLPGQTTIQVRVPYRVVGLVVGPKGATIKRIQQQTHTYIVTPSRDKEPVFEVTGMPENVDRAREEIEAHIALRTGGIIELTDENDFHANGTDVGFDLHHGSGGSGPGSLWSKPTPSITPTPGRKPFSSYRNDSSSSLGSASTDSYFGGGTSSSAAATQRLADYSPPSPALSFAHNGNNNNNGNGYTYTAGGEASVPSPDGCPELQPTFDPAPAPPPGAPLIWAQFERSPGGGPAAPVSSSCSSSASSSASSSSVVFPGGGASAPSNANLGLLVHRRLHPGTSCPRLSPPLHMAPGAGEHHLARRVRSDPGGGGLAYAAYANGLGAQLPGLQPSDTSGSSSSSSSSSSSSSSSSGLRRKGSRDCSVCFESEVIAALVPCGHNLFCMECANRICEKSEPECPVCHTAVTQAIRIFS
UniProt Q86UL3: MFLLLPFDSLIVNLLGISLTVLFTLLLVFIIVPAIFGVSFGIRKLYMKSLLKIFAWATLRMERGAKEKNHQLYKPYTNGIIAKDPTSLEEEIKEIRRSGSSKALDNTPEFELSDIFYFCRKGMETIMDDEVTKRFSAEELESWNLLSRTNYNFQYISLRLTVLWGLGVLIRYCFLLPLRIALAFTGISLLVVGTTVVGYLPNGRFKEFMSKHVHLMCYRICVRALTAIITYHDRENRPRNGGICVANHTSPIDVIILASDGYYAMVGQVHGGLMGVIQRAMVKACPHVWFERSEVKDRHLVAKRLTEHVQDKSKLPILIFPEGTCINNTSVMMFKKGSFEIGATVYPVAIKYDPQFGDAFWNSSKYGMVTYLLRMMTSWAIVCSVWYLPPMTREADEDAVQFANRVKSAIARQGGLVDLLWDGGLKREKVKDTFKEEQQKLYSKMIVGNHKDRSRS
UniProt Q7Z7K0: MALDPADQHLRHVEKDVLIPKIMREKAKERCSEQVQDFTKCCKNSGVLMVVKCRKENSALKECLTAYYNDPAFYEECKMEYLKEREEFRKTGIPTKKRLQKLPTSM

Each target was assayed with Cc1nc(Nc2ncc(C(=O)Nc3c(C)cccc3Cl)s2)cc(N2CCN(CCO)CC2)n1 [dasatinib] (assay: log2 fold change of tryptic peptide abundance, ligand vs vehicle (limited proteolysis) (log2 ratio); higher = more trypsin-susceptible (destabilized)). Settings: ligand concentration: 5 uM; sample: K562 cleared lysate.

Row | Target | log2 fold change
1 | UniProt Q7Z624 (peptide sequence: EVLLTDGNEK, peptide start residue: 173) | 0.369
2 | DYM (peptide sequence: SLHQYAAQR, peptide start residue: 476) (UniProt Q7RTS9) | 0.19
3 | ZNF627 (peptide sequence: ALTCLASVR, peptide start residue: 315) (UniProt Q7L945) | 0.318
4 | SUPT6H (peptide sequence: LDNGVTGFIPTK, peptide start residue: 1232) (UniProt Q7KZ85) | -0.275
5 | MED13L (peptide sequence: LLAQPNKR, peptide start residue: 672) (UniProt Q71F56) | -0.198
6 | UniProt Q6ZN57 (peptide sequence: IHTGEKPYECDQCGK, peptide start residue: 403) | 0.0564
7 | UniProt Q6ZU64 (peptide sequence: EEERDEKEEK, peptide start residue: 234) | -0.163
8 | UniProt Q7L9L4 (peptide sequence: ELAPLQELIEK, peptide start residue: 200) | -0.132
9 | UniProt Q7Z6M4 (peptide sequence: VSEAEFLAR, peptide start residue: 296) | 0.204
10 | CYP2U1 (peptide sequence: ELRQIEK, peptide start residue: 286) (UniProt Q7Z449) | 0.125
11 | PIK3AP1 (peptide sequence: QTDLEITVPIR, peptide start residue: 670) (UniProt Q6ZUJ8) | 0.439
12 | ZFHX4 (peptide sequence: QQQEQQQKPVQAK, peptide start residue: 3287) (UniProt Q86UP3) | -0.31
13 | DHRS11 (peptide sequence: VLPLSVTHFYSATK, peptide start residue: 157) (UniProt Q6UWP2) | -0.211
14 | PATL1 (peptide sequence: AVPIGTPPK, peptide start residue: 189) (UniProt Q86TB9) | 0.174
15 | WDR53 (peptide sequence: LNIEHGEK, peptide start residue: 319) (UniProt Q7Z5U6) | -0.375
16 | UniProt Q7L8W6 (peptide sequence: NQEDLLR, peptide start residue: 145) | -0.136
17 | UNC13D (peptide sequence: QQHHQPMVQGIPEAGK, peptide start residue: 474) (UniProt Q70J99) | 0.125
18 | MEX3B (peptide sequence: AKTNTYIK, peptide start residue: 94) (UniProt Q6ZN04) | -0.113
19 | GPAT4 (peptide sequence: NHQLYKPYTNGIIAK, peptide start residue: 69) (UniProt Q86UL3) | 1.05
20 | CMC1 (peptide sequence: HVEKDVLIPK, peptide start residue: 12) (UniProt Q7Z7K0) | -0.402
21 | UniProt Q7Z3E2 (peptide sequence: TLCQPNEHNNR, peptide start residue: 52) | 0.431
22 | TAF8 (peptide sequence: QSTNPADNYHLAR, peptide start residue: 21) (UniProt Q7Z7C8) | 0.168
23 | UniProt Q6ZW61 (peptide sequence: VEADNNTSR, peptide start residue: 206) | 0.178
24 | MYH14 (peptide sequence: QLEEAEEEASR, peptide start residue: 1902) (UniProt Q7Z406) | 0.797
25 | USP54 (peptide sequence: EFIPDEPSKPPSYDIK, peptide start residue: 612) (UniProt Q70EL1) | -0.295
26 | UniProt Q7Z3D6 (peptide sequence: GIGHLLCKDELLK, peptide start residue: 310) | 0.204

7 entries from above in a different format.

| Row | Target | log2 fold change |
| --- | --- | --- |
| 1 | UniProt Q7Z624 (peptide sequence: EVLLTDGNEK, peptide start residue: 173) | 0.369 |
| 5 | MED13L (peptide sequence: LLAQPNKR, peptide start residue: 672) (UniProt Q71F56) | -0.198 |
| 11 | PIK3AP1 (peptide sequence: QTDLEITVPIR, peptide start residue: 670) (UniProt Q6ZUJ8) | 0.439 |
| 12 | ZFHX4 (peptide sequence: QQQEQQQKPVQAK, peptide start residue: 3287) (UniProt Q86UP3) | -0.31 |
| 14 | PATL1 (peptide sequence: AVPIGTPPK, peptide start residue: 189) (UniProt Q86TB9) | 0.174 |
| 24 | MYH14 (peptide sequence: QLEEAEEEASR, peptide start residue: 1902) (UniProt Q7Z406) | 0.797 |
| 25 | USP54 (peptide sequence: EFIPDEPSKPPSYDIK, peptide start residue: 612) (UniProt Q70EL1) | -0.295 |
